Molecular target: Pim-1 variants
Experiment: Caliper mobility shift kinase assay
Assay type: biochemical, human
Conditions: exception K00487 and K00207a for Y53H
Protocol: Phosphorylation reaction was monitored using a coupled-enzyme assay in which ADP production is coupled to NADH oxidation by pyruvate kinase and lactate dehydrogenase. […] In the Caliper mobility shift assays kinase reactions were analyzed by microfluidic capillary electrophoresis. The final assay buffer was 50 mM HEPES, pH 7.5, 1 mM DTT, 0.02% Tween 20, 0.02% BSA, 10 mM beta-glycerophosphate, 0.01 mM Na3VO4, 0.6% DMSO, 8 mM MgCl2, 2 µM peptide and 0.2 nM kinase. The reactions were started by addition of substrate mix consisting of ATP and peptide substrate to kinase and inhibitor solution. ATP concentrations were adjusted to the Kmvalues of the specific Pim enzyme. After incubation for 60 min at 30°C reactions were terminated with 100 mM HEPES pH 7.5, 5% DMSO, 0.1% coating reagent (Caliper Lifescience) 10 mM EDTA pH 8.0, 0.015% Brij35. Levels of substrate and product were quantified by measuring the laser-induced fluorescence intensities of fluorescein labels of the peptide.

**Q.** How did the “IC50 for Pim-1 variants compared with wild type” value turn out when CN[C@@H]1C[C@H]2O[C@@](C)([C@@H]1OC)n1c3ccccc3c3c4c(c5c6ccccc6n2c5c31)C(=O)NC4 [K00207a, STAUROSPORINE] was run?
**A.** The value was “closely similar”.

Source: paper PMC3673989, “Effect of Single Amino Acid Substitution Observed in Cancer on Pim-1 Kinase Thermodynamic Stability and Structure” (PLoS ONE, 2013)
